Experimental data taken from patent US7291608B2, “Anti-inflammatory 17.β.-carbothioate ester derivatives of androstane with a cyclic ester group in position 17.α” (Glaxo Group Limited, priority 2001, dated 2007).
Some entries share one result that the patent states for a list of compounds.

Each compound was assayed against T1, glucocorticoid receptor (Homo sapiens, UniProt P04150) (assay: functional in vitro assay of glucocorticoid agonist activity (NF-κB/ELAM-sPAP reporter in TNF-stimulated A549 cells)). Settings: A549 cells with NF-κB responsive ELAM promoter-sPAP reporter; compound 1 hour at 37° C., then TNF 10 ng/ml for 16 hours.
T1 construct: A549 cells stably transfected with a reporter gene containing the NF-κB responsive elements from the ELAM gene promoter; endogenous in cells; host or cells: A549 cells stably transfected with NF-κB/ELAM-sPAP reporter
T1 sequence (P04150 1-777): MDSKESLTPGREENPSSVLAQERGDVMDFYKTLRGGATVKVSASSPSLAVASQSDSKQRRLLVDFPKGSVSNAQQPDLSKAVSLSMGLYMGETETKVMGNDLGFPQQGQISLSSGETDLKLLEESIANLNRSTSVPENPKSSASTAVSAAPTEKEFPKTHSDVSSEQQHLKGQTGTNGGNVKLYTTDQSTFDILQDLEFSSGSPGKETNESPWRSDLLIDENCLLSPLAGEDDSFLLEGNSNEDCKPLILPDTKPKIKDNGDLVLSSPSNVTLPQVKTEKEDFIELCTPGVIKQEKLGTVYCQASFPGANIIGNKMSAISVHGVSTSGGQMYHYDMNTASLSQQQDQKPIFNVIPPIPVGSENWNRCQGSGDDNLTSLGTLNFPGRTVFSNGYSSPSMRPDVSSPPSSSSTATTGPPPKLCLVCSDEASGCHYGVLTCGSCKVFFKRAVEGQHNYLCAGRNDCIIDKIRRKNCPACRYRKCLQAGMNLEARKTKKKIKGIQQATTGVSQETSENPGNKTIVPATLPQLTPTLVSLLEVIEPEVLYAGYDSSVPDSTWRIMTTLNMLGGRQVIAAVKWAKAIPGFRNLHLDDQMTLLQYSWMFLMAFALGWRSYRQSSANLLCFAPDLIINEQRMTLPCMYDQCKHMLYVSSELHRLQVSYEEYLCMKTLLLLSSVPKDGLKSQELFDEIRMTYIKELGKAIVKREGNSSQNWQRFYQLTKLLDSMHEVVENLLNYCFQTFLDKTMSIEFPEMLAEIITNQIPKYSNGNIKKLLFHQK
Format: cell-based

Q: Which EC50 does the source give for `CC1CC1C(=O)OC1(C(=O)SCF)C(C)CC2C3CC(F)C4=CC(=O)C=CC4(C)C3(F)C(O)CC21C` (stereo not drawn) [Example 10, 6α,9α-Difluoro-11β-hydroxy-16α-methyl-17α-(2-methylcyclopropylcarbonyl)oxy-3-oxo-androsta-1,4-diene-17β-carbothioic acid S-fluoromethyl ester] here?
A: Its EC50 is < 2 nM.

Q: `CC1CC2C3CC(F)C4=CC(=O)C=CC4(C)C3(F)C(O)CC2(C)C1(OC(=O)C1(C)CCC1)C(=O)SCF` (stereo not drawn) [Example 11] was tested. Which EC50 did it give?
A: The EC50 was < 2 nM.

Q: For `CC1CC2C3CC(F)C4=CC(=O)C=CC4(C)C3(F)C(O)CC2(C)C1(OC(=O)C1CCC1)C(=O)SCF` (stereo not drawn) [Example 1, 17α-(Cyclobutylcarbonyl)oxy-6α,9α-difluoro-11β-hydroxy-16α-methyl-3-oxo-androsta-1,4-diene-17β-carbothioic acid S-fluoromethyl ester], which EC50 is on record?
A: Its EC50 is < 2 nM.

Q: How did the EC50 turn out when `CC1CC2C3CC(F)C4=CC(=O)C=CC4(C)C3(F)C(O)CC2(C)C1(OC(=O)C1CC(=O)C1)C(=O)SCF` (stereo not drawn) [Example 15, 6α,9α-Difluoro-11β-hydroxy-16α-methyl-3-oxo-17α-(3-oxocyclobutylcarbonyl)oxy-androsta-1,4-diene-17β-carbothioic acid S-fluoromethyl ester] was run?
A: Its EC50 is < 2 nM.

Q: `CC1CC2C3CC(F)C4=CC(=O)C=CC4(C)C3(F)C(O)CC2(C)C1(OC(=O)C1CC(F)(F)C1)C(=O)SCF` (stereo not drawn) [Example 13, 6α,9α-Difluoro-17α-(3,3-difluorocyclobutylcarbonyl)oxy-11β-hydroxy-16α-methyl-3-oxo-androsta-1,4-diene-17β-carbothioic acid S-fluoromethyl ester] was tested. Which EC50 did it give?
A: Its EC50 is < 2 nM.

Q: `CC1CC2C3CC(F)C4=CC(=O)C=CC4(C)C3(F)C(O)CC2(C)C1(OC(=O)C1CC1)C(=O)SCF` (stereo not drawn) [Example 4, 17α-(Cyclopropylcarbonyl)oxy-6α,9α-difluoro-11β-hydroxy-16α-methyl-3-oxo-androsta-1,4-diene-17β-carbothioic acid S-fluoromethyl ester] was tested. Which EC50 did it give?
A: The EC50 was < 2 nM.

Q: How did the EC50 turn out when `C=C1CC(C(=O)OC2(C(=O)SCF)C(C)CC3C4CC(F)C5=CC(=O)C=CC5(C)C4(F)C(O)CC32C)C1` (stereo not drawn) [Example 9, 6α, 9α-Difluoro-11β-hydroxy-16α-methyl-17α-(3-methylenecyclobutylcarbonyl)oxy-3-oxo-androsta-1,4-diene-17β-carbothioic acid S-fluoromethyl ester] was run?
A: Its EC50 is < 2 nM.

Q: Which EC50 does the source give for `CC1CC2C3CC(F)C4=CC(=O)C=CC4(C)C3(F)C(O)CC2(C)C1(OC(=O)C1(C)CC1)C(=O)SCF` (stereo not drawn) [Example 5, 6α,9α-Difluoro-11β-hydroxy-16α-methyl-17α-(1-methycyclopropylcarbonyl)oxy-3-oxo-androsta-1,4-diene-17β-carbothioic acid S-fluoromethyl ester] here?
A: The EC50 was < 2 nM.

Q: How did the EC50 turn out when `CC1CC2C3CC(F)C4=CC(=O)C=CC4(C)C3(F)C(O)CC2(C)C1(OC(=O)C1CCCCC1)C(=O)SCF` (stereo not drawn) [Example 3, 17α-(Cyclohexylcarbonyl)oxy-6α,9α-difluoro-11β-hydroxy-16α-methyl-3-oxo-androsta-1,4-diene-17β-carbothioic acid S-fluoromethyl ester] was run?
A: The EC50 was < 2 nM.

Q: `CC1CC2C3CC(F)C4=CC(=O)C=CC4(C)C3(F)C(O)CC2(C)C1(OC(=O)C1CC(C)(C)C1)C(=O)SCF` (stereo not drawn) [Example 12, 6α,9α-Difluoro-17α-(3,3-dimethylcyclobutylcarbonyl)oxy-11β-hydroxy-16α-methyl-3-oxo-androsta-1,4-diene-17β-carbothioic acid S-fluoromethyl ester] was tested. Which EC50 did it give?
A: The EC50 was < 2 nM.

Q: For `CC1CC2C3CC(F)C4=CC(=O)C=CC4(C)C3(F)C(O)CC2(C)C1(OC(=O)C1CC1(Cl)Cl)C(=O)SCF` (stereo not drawn) [Example 8, 17α-(2,2-Dichlorocylopropylcarbonyl)oxy-6α,9α-difluoro-11β-hydroxy-16α-methyl-3-oxo-androsta-1,4-diene-17β-carbothioic acid S-fluoromethyl ester], which EC50 is on record?
A: The EC50 was < 2 nM.

Q: How did the EC50 turn out when `CC1CC2C3CC(F)C4=CC(=O)C=CC4(C)C3(F)C(O)CC2(C)C1(OC(=O)C1(C)CCCC1)C(=O)SCF` (stereo not drawn) [Example 14, 6α,9α-Difluoro-11β-hydroxy-16α-methyl-17α-(1-methylcyclopentylcarbonyl)oxy-3-oxo-androsta-1,4-diene-17α-carbothioic acid S-fluoromethyl ester] was run?
A: The EC50 was < 2 nM.

Q: How did the EC50 turn out when `CC1CC2C3CC(F)C4=CC(=O)C=CC4(C)C3(F)C(O)CC2(C)C1(OC(=O)C1CCCC1)C(=O)SCF` (stereo not drawn) [Example 2, 17α-(Cyclopentylcarbonyl)oxy-6α,9α-difluoro-11β-hydroxy-16α-methyl-3-oxo-androsta-1,4-diene-17β-carbothioic acid S-fluoromethyl ester] was run?
A: Its EC50 is < 2 nM.

Q: `CC1CC2C3CC(F)C4=CC(=O)C=CC4(C)C3(F)C(O)CC2(C)C1(OC(=O)C1(C)CC1(Cl)Cl)C(=O)SCF` (stereo not drawn) [Example 7, 17α-(2,2-Dichloro-1-methycyclopropylcarbonyl)oxy-6α,9α-difluoro-11β-hydroxy-16α-methyl-3-oxo-androsta-1,4-diene-17β-carbothioic acid S-fluoromethyl ester] was tested. Which EC50 did it give?
A: Its EC50 is < 2 nM.

Q: Which EC50 does the source give for `CC1CC2C3CC(F)C4=CC(=O)C=CC4(C)C3(F)C(O)CC2(C)C1(OC(=O)C1C(C)(C)C1(C)C)C(=O)SCF` (stereo not drawn) [Example 6, 6α,9α-Difluoro-11β-hydroxy-16α-methyl-3-oxo-17α-(2,2,3,3-tetramethycyclopropylcarbonyl)oxy-androsta-1,4-diene-17β-carbothioic acid S-fluoromethyl ester] here?
A: The EC50 was < 2 nM.
